# Test results as given in ChEMBL document CHEMBL4316593 (Eur J Med Chem, 2019).
# This continues a long series; more values of the same kind are listed elsewhere.
# Assays:
# Assay type in all cases: cell-based
# Conditions in all cases: U-87MG ATCC
# [1] = Inhibition of RTK/PI3K/AKT/mTOR signaling in human U87 cells assessed as down regulation of LCP1 gene expression at cytotoxic IC50 measured after 48 hrs relative to control
# [2] = Inhibition of RTK/PI3K/AKT/mTOR signaling in human U87 cells assessed as down regulation of TRIM36 gene expression at cytotoxic IC50 measured after 48 hrs relative to control
# [3] = Inhibition of RTK/PI3K/AKT/mTOR signaling in human U87 cells assessed as down regulation of DNAJC6 gene expression at cytotoxic IC50 measured after 48 hrs relative to control
# [4] = Inhibition of RTK/PI3K/AKT/mTOR signaling in human U87 cells assessed as down regulation of HCFC2 gene expression at cytotoxic IC50 measured after 48 hrs relative to control
# [5] = Inhibition of RTK/PI3K/AKT/mTOR signaling in human U87 cells assessed as down regulation of WASL gene expression at cytotoxic IC50 measured after 48 hrs relative to control
# [6] = Inhibition of RTK/PI3K/AKT/mTOR signaling in human U87 cells assessed as down regulation of RSRP1 gene expression at cytotoxic IC50 measured after 48 hrs relative to control
# [7] = Inhibition of RTK/PI3K/AKT/mTOR signaling in human U87 cells assessed as down regulation of TACC3 gene expression at cytotoxic IC50 measured after 48 hrs relative to control
# [8] = Inhibition of RTK/PI3K/AKT/mTOR signaling in human U87 cells assessed as down regulation of ZNF197 gene expression at cytotoxic IC50 measured after 48 hrs relative to control
# [9] = Inhibition of RTK/PI3K/AKT/mTOR signaling in human U87 cells assessed as down regulation of TXNDC17 gene expression at cytotoxic IC50 measured after 48 hrs relative to control
# [10] = Inhibition of RTK/PI3K/AKT/mTOR signaling in human U87 cells assessed as down regulation of ORC1 gene expression at cytotoxic IC50 measured after 48 hrs relative to control
# [11] = Inhibition of RTK/PI3K/AKT/mTOR signaling in human U87 cells assessed as down regulation of RFK gene expression at cytotoxic IC50 measured after 48 hrs relative to control
# [12] = Inhibition of RTK/PI3K/AKT/mTOR signaling in human U87 cells assessed as down regulation of RAB21 gene expression at cytotoxic IC50 measured after 48 hrs relative to control
# [13] = Inhibition of RTK/PI3K/AKT/mTOR signaling in human U87 cells assessed as down regulation of WDR44 gene expression at cytotoxic IC50 measured after 48 hrs relative to control
# [14] = Inhibition of RTK/PI3K/AKT/mTOR signaling in human U87 cells assessed as down regulation of NRBF2 gene expression at cytotoxic IC50 measured after 48 hrs relative to control
# [15] = Inhibition of RTK/PI3K/AKT/mTOR signaling in human U87 cells assessed as down regulation of ASCC2 gene expression at cytotoxic IC50 measured after 48 hrs relative to control
# [16] = Inhibition of RTK/PI3K/AKT/mTOR signaling in human U87 cells assessed as down regulation of BAP1 gene expression at cytotoxic IC50 measured after 48 hrs relative to control
# [17] = Inhibition of RTK/PI3K/AKT/mTOR signaling in human U87 cells assessed as down regulation of AREL1 gene expression at cytotoxic IC50 measured after 48 hrs relative to control
# [18] = Inhibition of RTK/PI3K/AKT/mTOR signaling in human U87 cells assessed as down regulation of BIRC2 gene expression at cytotoxic IC50 measured after 48 hrs relative to control
# [19] = Inhibition of RTK/PI3K/AKT/mTOR signaling in human U87 cells assessed as up regulation of MXI1 gene expression at cytotoxic IC50 measured after 48 hrs relative to control
# [20] = Inhibition of RTK/PI3K/AKT/mTOR signaling in human U87 cells assessed as up regulation of ENO2 gene expression at cytotoxic IC50 measured after 48 hrs relative to control
# [21] = Inhibition of RTK/PI3K/AKT/mTOR signaling in human U87 cells assessed as up regulation of ANKRD29 gene expression at cytotoxic IC50 measured after 48 hrs relative to control
# [22] = Inhibition of RTK/PI3K/AKT/mTOR signaling in human U87 cells assessed as up regulation of early B-cell factor 4 gene expression at cytotoxic IC50 measured after 48 hrs relative to control
# [23] = Inhibition of RTK/PI3K/AKT/mTOR signaling in human U87 cells assessed as up regulation of solute carrier family 27 member 1 gene expression at cytotoxic IC50 measured after 48 hrs relative to control
# [24] = Inhibition of RTK/PI3K/AKT/mTOR signaling in human U87 cells assessed as up regulation of cathepsin H gene expression at cytotoxic IC50 measured after 48 hrs relative to control
# [25] = Inhibition of RTK/PI3K/AKT/mTOR signaling in human U87 cells assessed as up regulation of TEA domain transcription factor 2 gene expression at cytotoxic IC50 measured after 48 hrs relative to control
# [26] = Inhibition of RTK/PI3K/AKT/mTOR signaling in human U87 cells assessed as up regulation of collagen type XXVII alpha 1 chain gene expression at cytotoxic IC50 measured after 48 hrs relative to control
# [27] = Inhibition of RTK/PI3K/AKT/mTOR signaling in human U87 cells assessed as up regulation of growth factor receptor bound protein 7 gene expression at cytotoxic IC50 measured after 48 hrs relative to control
# [28] = Inhibition of RTK/PI3K/AKT/mTOR signaling in human U87 cells assessed as up regulation of small G protein signaling modulator 2 gene expression at cytotoxic IC50 measured after 48 hrs relative to control
# [29] = Inhibition of RTK/PI3K/AKT/mTOR signaling in human U87 cells assessed as up regulation of erb-b2 receptor tyrosine kinase 3 gene expression at cytotoxic IC50 measured after 48 hrs relative to control
# [30] = Inhibition of RTK/PI3K/AKT/mTOR signaling in human U87 cells assessed as up regulation of DPH2 homolog gene expression at cytotoxic IC50 measured after 48 hrs relative to control
# [31] = Inhibition of RTK/PI3K/AKT/mTOR signaling in human U87 cells assessed as up regulation of UBE2G2 gene expression at cytotoxic IC50 measured after 48 hrs relative to control
# [32] = Inhibition of RTK/PI3K/AKT/mTOR signaling in human U87 cells assessed as up regulation of IMPDH2 gene expression at cytotoxic IC50 measured after 48 hrs relative to control
compound,measurement,setting,value
CC(=O)C(=NNc1ccccc1C#N)C(C)=O,log2FC,[1],-3.31
same,log2FC,[2],-1.61
same,log2FC,[3],-1.28
same,log2FC,[4],-1.11
same,log2FC,[5],-1.09
same,log2FC,[6],-1.04
same,log2FC,[7],-0.959
same,log2FC,[8],-0.928
same,log2FC,[9],-0.926
same,log2FC,[10],-0.923
same,log2FC,[11],-0.916
same,log2FC,[12],-0.84
same,log2FC,[13],-0.815
same,log2FC,[14],-0.774
same,log2FC,[15],-0.696
same,log2FC,[16],-0.61
same,log2FC,[17],-0.506
same,log2FC,[18],-0.448
same,log2FC,[19],1.99
same,log2FC,[20],1.69
same,log2FC,[21],1.62
same,log2FC,[22],1.44
same,log2FC,[23],1.41
same,log2FC,[24],1.23
same,log2FC,[25],1.19
same,log2FC,[26],1.18
same,log2FC,[27],1.07
same,log2FC,[28],0.902
same,log2FC,[29],0.699
same,log2FC,[30],0.664
same,log2FC,[31],0.594
same,log2FC,[32],0.37
